Results: patent US11406709B2, “Therapeutic and research application of PDCL3” (TRUSTEES OF BOSTON UNIVERSITY, priority 2014, dated 2022)

Tested on: HEK-293 cells
Assay: Cycloheximide (CHX)-chase assay, half-life of PDCL3
Type: cell-based, human
Conditions: CHX 20 μg/ml

Row | Molecule | half-life of PDCL3 after inhibition of its translation by CHX
1 | PDCL3: 239-amino acid human phosducin-like protein 3, SEQ ID NO: 1; expressed from cDNA in cells (protein, listed as Homo sapiens, Myc tag in some forms, expressed from cDNA in cells) MQDPNADTEWNDILRKKGILPPKESLKELEEEAEEEQRILQQSVVKTYEDMTLEELEDHEDEFNEEDERAIEMYRRRRLAEWKATKLKNKFGEVLEISGKDYVQEVTKAGEGLWVILHLYKQGIPLCALINQHLSGLARKFPDVKFIKAISTTCIPNYPDRNLPTIFVYLEGDIKAQFIGPLVFGGMNLTRDELEWKLSESGAIMTDLEENPKKPIEDVLLSSVRRSVLMKRDSDSEGD | about 30 minutes
2 | acetylation resistant HA-tagged PDCL3: Mutant PDCL3 generated by removing the first methionine and adding HA tag (protein, left off: small tags and cut ends) QDPNADTEWNDILRKKGILPPKESLKELEEEAEEEQRILQQSVVKTYEDMTLEELEDHEDEFNEEDERAIEMYRRRRLAEWKATKLKNKFGEVLEISGKDYVQEVTKAGEGLWVILHLYKQGIPLCALINQHLSGLARKFPDVKFIKAISTTCIPNYPDRNLPTIFVYLEGDIKAQFIGPLVFGGMNLTRDELEWKLSESGAIMTDLEENPKKPIEDVLLSSVRRSVLMKRDSDSEGD | quite stable up to 60 minutes
